This passage reports oxidative folding yield results from US12544431B2 (BCN PEPTIDES, S.A., priority 2019, dated 2026).

The data set in a line: general procedure: Fmoc solid-phase peptide synthesis. As to conditions: oxidative folding step.

Substance “(Pyr-Lys-Arg-Asp-Ser-Ser-Asn-Ser-Cys-Asp-Leu-Pro-Glu-Msa-Lys-NH2)2 (disulfide bridge)” displayed an oxidative folding yield of 81% yield.
